How the values were obtained:
[1] = Thermal NMR: inversion-recovery T1 and steady-state saturation transfer (intermolecular NOE) from naphthalene source in CDCl3; details: for normalized cross-relaxation rate σ: from thermal saturation measurements, naphthalene source; for steady-state intermolecular NOE enhancement ε: steady-state saturation transfer from naphthalene; for T1 relaxation time: thermal, in CDCl3 with concentrated naphthalene-h8
[2] = Polarization transfer via intermolecular NOE from optically polarized pentacene:naphthalene dissolved in CDCl3, 1.45 T benchtop NMR

ClC(Cl)C(Cl)Cl [TCE, 1,1,2,2-tetrachloroethane]
normalized cross-relaxation rate σ [1]: (5.6±0.6)*10^−3 1/s | steady-state intermolecular NOE enhancement ε [1]: 1.20±0.02 | T1 relaxation time [1]: 35.6 s

CC(C)=O [acetone]
normalized cross-relaxation rate σ [1]: (3.7±1.5)*10^−3 1/s | steady-state intermolecular NOE enhancement ε [1]: 1.05±0.02 | T1 relaxation time [1]: 13.5 s

c1ccc2ccccc2c1 [naphthalene]
T1 relaxation time [1]: greater than 10 s

C#CCOC(C)=O [propargyl acetate]
1H T1 relaxation time, CH2 resonance [2]: approximately 10 seconds | 1H T1 relaxation time, CH3 resonance [2]: approximately 10 seconds | 1H T1 relaxation time, CH protons [2]: about 60 s | polarization corresponding to enhancement (summary) ([2]; 1.45 T): ≥ 0.86% | maximum signal enhancement, CH2 resonance ([2]; 1.45 T, FIG. 18A): −250±10 | maximum signal enhancement, CH3 resonance ([2]; 1.45 T, FIG. 18A): −360±10 | polarization corresponding to highest enhancement ([2]; 1.45 T, FIG. 18A): −1% | maximum signal enhancement, CH2 resonance ([2]; 1.45 T, FIG. 18B): approximately 260±10 | maximum signal enhancement, CH3 resonance ([2]; 1.45 T, FIG. 18B): ~380±10 | polarization corresponding to highest enhancement ([2]; 1.45 T, FIG. 18B): approximately 1% | highest signal enhancement (CH protons) ([2]; 1.45 T, buildup curves probed by 1 degree flip angles (FIG. 18A), 20% v/v naphthalene, 300 mM in CDCl3): −1730±60 | highest signal enhancement (CH protons) ([2]; 1.45 T, hyperpolarized spectrum vs averaged 90-degree thermal spectrum (FIG. 18B), buildup 35 to 40 seconds): 1820±60

From patent publication US20240361407A1, “SYSTEMS AND METHODS FOR GENERATION OF HYPERPOLARIZED MATERIALS” (priority 2021, published 2024)
